Reference: PubChem BioAssay AID1671190 (National Center for Advancing Translational Sciences (NCATS), 2021)
Out of some 580,000 compounds screened, about 6,100 (1.1%) were called active. The shares of active, inactive and inconclusive entries below differ from those in the screen. The call rests on the fitted dose curve; in most records, active means well fitted inhibition curve with a large enough effect; inconclusive means small, poorly fitted or top-dose-only effect, or another doubt; inactive means no such curve, though single readings can be large or run the other way. Potencies beside an inconclusive call are fits to weak or partial responses and may not hold up.

Sequences of proteins named here, by UniProt entry; tags and fusion partners are left off.
UniProt P18054, whole entry, looked up: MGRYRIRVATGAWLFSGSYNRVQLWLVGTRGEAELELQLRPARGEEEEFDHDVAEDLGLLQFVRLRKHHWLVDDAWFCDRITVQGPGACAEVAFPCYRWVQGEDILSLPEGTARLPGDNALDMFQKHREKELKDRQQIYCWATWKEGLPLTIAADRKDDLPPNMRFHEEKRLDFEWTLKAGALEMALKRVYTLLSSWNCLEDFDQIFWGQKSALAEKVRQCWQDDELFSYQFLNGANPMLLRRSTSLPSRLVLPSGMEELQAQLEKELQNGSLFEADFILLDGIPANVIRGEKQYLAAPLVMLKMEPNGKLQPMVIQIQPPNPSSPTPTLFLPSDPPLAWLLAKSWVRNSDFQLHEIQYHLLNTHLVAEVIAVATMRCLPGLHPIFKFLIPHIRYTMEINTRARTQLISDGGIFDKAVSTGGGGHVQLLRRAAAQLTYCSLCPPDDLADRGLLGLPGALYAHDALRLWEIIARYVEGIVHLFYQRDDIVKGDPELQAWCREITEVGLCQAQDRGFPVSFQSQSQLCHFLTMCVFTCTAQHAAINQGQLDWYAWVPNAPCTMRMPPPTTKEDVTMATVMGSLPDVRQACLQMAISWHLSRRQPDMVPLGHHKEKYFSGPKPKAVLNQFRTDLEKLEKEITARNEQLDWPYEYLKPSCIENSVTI

What follows are compounds tested against Polyunsaturated fatty acid lipoxygenase ALOX12 (Homo sapiens) (UniProt P18054) (assay: Primary qHTS assay for inhibitors of human arachidonate 12S-lipoxygenase (ALOX12): Round 2). Settings: purified 12hLO, xylenol orange hydroperoxide absorbance; activity change, negative = inhibition: at 108 µM (top of the series) unless noted.
In short: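 Purified human 12hLO at 150 nM in 25 mM Hepes, 0.01% Triton X-100, pH 7.0, preincubated 15 min at room temperature with compound. Reaction started with 40 uM arachidonic acid, 30 min at room temperature. Hydroperoxide measured by Fe-xylenol orange, 573/405 nm absorbance ratio.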
On the % scale 0 is the no-effect control and ±100 the full control effect; potency means the concentration at half of the fitted maximal effect.

Row | SMILES | Potency | activity change, negative = inhibition
1 | CCc1ccc(NC(=S)Nc2cccc(OC)c2)cc1 | inconclusive: 50.1 µM [inhibitor, single point] | –
2 | C/C(=N\O)c1c(O)cc(-c2ccccc2)n(-c2ccccc2)c1=O | – | inactive: 154%
3 | CCCOc1ccc(Br)cc1/C=N/NC(=O)c1cc(OC)c(OC)c(OC)c1 | – | inactive: 3.27%
4 | CCOC(=O)c1ccc(S(=O)(=O)N2CCN(C(=O)c3ccccn3)CC2)cc1 | inconclusive: 28.2 µM [inhibitor, partial curve, poor fit] | –
5 | CCOc1ccc(C(=O)CCC(=O)Nc2ncccc2O)cc1 | inconclusive: 39.8 µM [inhibitor, partial curve, poor fit] | –
6 | COc1ccc2[nH]c(=O)c(CN(C(=O)c3ccco3)C3CCCCC3)cc2c1 | inconclusive: 31.6 µM [inhibitor, single point] | –
7 | N=C1SCC(=O)N1c1ccc(Cl)cc1 | inconclusive: 39.8 µM [inhibitor, partial curve, poor fit] | –
8 | O=C(CSc1ccc2c(c1)CCC2)Nc1ccc2c(c1)OCCCO2 | inconclusive: 100 µM [inhibitor, partial curve, poor fit] | –
9 | Cc1ccc(S(=O)(=O)Nc2ccc(-c3csc(-c4ccccc4)n3)cc2)cc1 | inconclusive: 11.2 µM [inhibitor, full curve, poor fit] | –
10 | CCOC(=O)C1CCN(C(=O)C(C)Oc2ccc(Br)cc2)CC1 (centres undefined) | inconclusive: 35.5 µM [inhibitor, partial curve] | –
11 | COc1ccc(CCNC(=O)/C=C/c2ccco2)cc1OC | inconclusive: 39.8 µM [inhibitor, partial curve] | –
12 | CCS(=O)(=O)c1ncc(CN(C)Cc2cn(C)nc2C)n1CCc1ccccc1 | – | inactive: 13.1%
13 | CNCCCCOc1ccc(C(C)(C)C)cc1Cl | inconclusive: 28.2 µM [inhibitor, full curve, poor fit] | –
14 | O=C(Nc1nc(-c2ccc(F)cc2)cs1)c1cccc(N2C(=O)CCC2=O)c1 | inconclusive: 31.6 µM [inhibitor, partial curve, poor fit] | –
15 | CCn1cc(C(=O)NCCc2ccc(OC)c(OC)c2)c(=O)c2cc(S(=O)(=O)N3CCC(C)CC3)ccc21 | inconclusive: 112 µM [inhibitor, partial curve, poor fit] | –
16 | CC(=O)Nc1ccc(C(=O)N2CCC3(CC2)CC(N[S+](C)(=O)[O-])c2ccccc23)cc1 (centres undefined) | inconclusive: 1.58 µM [inhibitor, full curve, poor fit] | –
17 | CCNc1ccc(Br)cc(C(=O)/C=C/c2ccc3c(c2)OCO3)c1=O | active: 3.16 µM | –
18 | CC1=C(C(=O)OCc2ccccc2)C(c2ccccc2OS(=O)(=O)c2ccc(C)cc2)NC(=O)N1CCCC(=O)O (centres undefined) | inconclusive: 79.4 µM [inhibitor, single point] | –
19 | COc1cc(/C=C/c2nc(C#N)c(NCCc3ccccc3)o2)cc(OC)c1OC | inconclusive: 89.1 µM [inhibitor, partial curve, poor fit] | –
20 | Cc1cc(C)c(S(=O)(=O)N2CCN(C(=O)c3ccc(-n4nc(C)c(Cl)c4C)cc3)CC2)c(C)c1 | inconclusive: 50.1 µM [inhibitor, partial curve, poor fit] | –
21 | CC(C)(C)C1CCc2c(sc3nnn(CCOc4ccccc4)c(=O)c23)C1 (centres undefined) | inconclusive: 141 µM [inhibitor, partial curve, poor fit] | –
22 | Cc1nc(NC(=O)C(C)(C)C)sc1-c1nc(N)sc1-n1cc(-c2ccccc2)nn1 | inconclusive: 15.8 µM [inhibitor, partial curve, poor fit] | –

Row | SMILES | Potency | activity change, negative = inhibition
23 | O=C1NC2(CCCCC2)NN1c1ccc(Br)cc1 | inconclusive: 6.31 µM [inhibitor, full curve, poor fit] | –
24 | Cc1nc(-c2ccccc2)n(CC(=O)Nc2cc(C(F)(F)F)ccc2Cl)c(=O)c1CCO | inconclusive: 89.1 µM [inhibitor, single point] | –
25 | CS(=O)(=O)CC[C@H](NC(=O)C1=C[C@@H](NC(=O)CCN)[C@@H](O)[C@H](O)C1)C(N)=O | – | inactive: 12.2% [at 176 µM]
26 | COc1cccc(NC(=S)NCCCN2CCOCC2)c1 | inconclusive: 50.1 µM [inhibitor, partial curve, poor fit] | –
27 | CCC(=O)NCC1Cn2cccc2C(=O)N1Cc1ccccc1 (centres undefined) | – | inactive: 13.6%
28 | CC1CCCN(C(=O)C2CCN(CC3CC=CCC3)CC2)C1 (centres undefined) | inconclusive: 4.47 µM [inhibitor, single point] | –
29 | CCCn1c(C)cs/c1=N\C(=S)Nc1ccccc1 | inconclusive: 44.7 µM [inhibitor, partial curve] | –
30 | CCOc1ccc(CN(C)CC(=O)Nc2ccc(N3CCOCC3)cc2)cc1OC | inconclusive: 5.62 µM [inhibitor, full curve, poor fit] | –
31 | Cc1ccc(-c2cc(C(=O)N/N=C/c3ccc(Cl)cc3)n[nH]2)o1 | – | inactive: 9.67%
32 | O=C(COc1ccccc1F)Nc1nc(-c2ccccn2)cs1 | inconclusive: 31.6 µM [inhibitor, partial curve, poor fit] | –
33 | CC1(c2cccc(Br)c2)NC(=O)N(CC(=O)Nc2ccc3c(c2)OCO3)C1=O (centres undefined) | inconclusive: 79.4 µM [inhibitor, single point] | –
34 | COC(=O)C(NC(=O)CNS(=O)(=O)c1ccc(Br)cc1)c1ccccc1 (centres undefined) | inconclusive: 112 µM [inhibitor, partial curve, poor fit] | –
35 | COC(=O)CNC(=O)/C=C/c1ccc(C#N)cc1 | inconclusive: 0.178 µM [inhibitor, full curve, poor fit] | –
36 | CCOc1ccc(NC(=O)c2ccc(N3CC4CC(C3)c3cccc(=O)n3C4)c(NC(=O)c3ccncc3)c2)cc1 (centres undefined) | – | inactive: -23%
37 | CCCN1CNC(=S)N(c2ccc(C(=O)OCC)cc2)C1 | – | inactive: 0.32%
38 | CSc1ccc(CN(C)C(=O)C(c2ccccc2)c2ccccc2)cc1 | – | inactive: 0%
39 | Cc1ccc(N2CC(C(=O)Nc3ccc(S(=O)(=O)Nc4nccs4)cc3)CC2=O)cc1 (centres undefined) | inconclusive: 39.8 µM [inhibitor, partial curve, poor fit] | –
40 | CCn1c(=S)[nH]c2sc3c(c2c1=O)CCCC3 | inconclusive: 0.355 µM [inhibitor, full curve, poor fit] | –
41 | CCCc1nc2ccccc2n1Cc1ccccc1OC | – | inactive: 0.66%
42 | [O-]c1c[n+](-c2ccc(-[n+]3cc([O-])on3)cc2)no1 | inconclusive: 44.7 µM [inhibitor, partial curve, poor fit] | –
43 | Cc1cc(C)cc(CSCC(=O)N/N=C/c2ccc(OCC(=O)NCc3ccco3)cc2)c1 | inconclusive: 100 µM [inhibitor, partial curve, poor fit] | –
44 | CCc1ccc2c(COC(=O)c3n[nH]c4ccccc34)cc(=O)oc2c1 | inconclusive: 50.1 µM [inhibitor, single point] | –

Given as labelled records: part of the list above
CCC(=O)NCC1Cn2cccc2C(=O)N1Cc1ccccc1 (centres undefined)
  activity change, negative = inhibition: inactive: 13.6%
CC1CCCN(C(=O)C2CCN(CC3CC=CCC3)CC2)C1 (centres undefined)
  Potency: inconclusive: 4.47 µM [inhibitor, single point]
CCCn1c(C)cs/c1=N\C(=S)Nc1ccccc1
  Potency: inconclusive: 44.7 µM [inhibitor, partial curve]
CCOc1ccc(CN(C)CC(=O)Nc2ccc(N3CCOCC3)cc2)cc1OC
  Potency: inconclusive: 5.62 µM [inhibitor, full curve, poor fit]

(listing goes on)

Row | SMILES | Potency | activity change, negative = inhibition
45 | CC1Oc2ccccc2N(Cc2cccc(F)c2)C1=O (centres undefined) | – | inactive: 0%
46 | O=C(NC(c1ccc(F)cc1)c1ccc2ccccc2n1)C1CCN(Cc2ccc3ccccc3n2)CC1 (centres undefined) | active: 15.8 µM | –
47 | COc1cc(CNc2nc(-c3c(C)noc3C)cc3cc(CN(C)C)oc23)cc(OC)c1 | inconclusive: 20 µM [inhibitor, partial curve, poor fit] | –
48 | CSc1ccccc1NC(=O)C1(C)CCN1C(=O)Cc1ccc(-c2ccccc2)cc1 (centres undefined) | – | inactive: 1.52%
49 | Cc1nc(C)c(C(=O)O)s1 | inconclusive: 0.447 µM [inhibitor, full curve, poor fit] | –
50 | CN(Cc1cnn(C)c1)C(=O)c1csc2nc(-c3cccc(C(F)(F)F)c3)cn12 | – | inactive: 20.9%
51 | CCOC(=O)N1CCc2c(sc3c2c(=O)n(CCc2ccccc2)c(=O)n3CC(=O)Nc2cccc(C)c2)C1 | inconclusive: 10 µM [inhibitor, partial curve, poor fit] | –
52 | COc1cc(=O)n2c(c1C(=O)N(C)Cc1cscn1)CCN(Cc1c(C)[nH]c3ccccc13)CC2 | inconclusive: 100 µM [inhibitor, single point] | –
53 | O=C(Cc1cccs1)NCC1CCCO1 (centres undefined) | – | inactive: 17.3%
54 | COc1cc(/C=N/Nc2ccc(Cl)c(C(=O)O)c2)ccc1OC(=O)c1ccccc1F | inconclusive: 50.1 µM [inhibitor, partial curve, poor fit] | –
55 | CCN(CC)C(=O)CSc1nc2cc(S(=O)(=O)N(C)C)ccc2o1 | – | inactive: -38.5%
56 | Cc1cc(C=O)c(C)n1CCc1ccc(Cl)cc1 | inconclusive: 56.2 µM [inhibitor, partial curve, poor fit] | –
57 | O=C(N/N=C/c1sc2ccccc2c1O)c1cccc2ccccc12 | inconclusive: 44.7 µM [inhibitor, partial curve, poor fit] | –
58 | O=C1N(Cc2cccc(F)c2)CCCN1c1cccc(C(=O)N2CCc3ccccc32)c1 | inconclusive: 141 µM [inhibitor, partial curve, poor fit] | –
59 | CCC1CCc2sc(C(=O)NCC(c3ccc(OC)cc3)N3CCCC3)cc2C1 (centres undefined) | inconclusive: 44.7 µM [inhibitor, partial curve, poor fit] | –
60 | COc1cc(C2C(C(=O)c3ccc(C)o3)=C(O)C(=O)N2Cc2ccccc2)ccc1O (centres undefined) | inconclusive: 89.1 µM [inhibitor, partial curve, poor fit] | –
61 | O=C(COC(=O)C1C2CC3OC(=O)C1C3C2)Nc1cccc(C(F)(F)F)c1 (centres undefined) | – | inactive: -14.5%
62 | O=S(=O)(Nc1ncccc1O)c1ccc(Cl)cc1 | inconclusive: 31.6 µM [inhibitor, partial curve, poor fit] | –
63 | O=C(O)C1CSC(c2ccccc2)N1C(=O)c1ccco1 (centres undefined) | inconclusive: 28.2 µM [inhibitor, partial curve, poor fit] | –
64 | O=C(c1ccc2ccccc2n1)N1CCC(c2n[nH]c(=O)n2-c2ccccc2)CC1 | inconclusive: 39.8 µM [inhibitor, partial curve, poor fit] | –
